Results: the supplement of paper PMC10849652
This is one part of the list.

Protein sequences, listed by entry. Tags and fused reporters are not part of them. Lines headed by an entry give the natural chain unless they say otherwise; changes in a name come on top.
UniProt Q9UBW8: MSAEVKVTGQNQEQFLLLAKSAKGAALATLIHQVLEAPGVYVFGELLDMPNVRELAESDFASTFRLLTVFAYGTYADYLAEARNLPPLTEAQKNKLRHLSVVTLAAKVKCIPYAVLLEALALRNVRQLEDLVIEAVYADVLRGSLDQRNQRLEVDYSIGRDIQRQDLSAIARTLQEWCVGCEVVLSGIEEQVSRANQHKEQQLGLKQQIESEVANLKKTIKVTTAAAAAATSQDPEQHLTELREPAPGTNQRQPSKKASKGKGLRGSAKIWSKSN
UniProt P09669, whole entry, looked up: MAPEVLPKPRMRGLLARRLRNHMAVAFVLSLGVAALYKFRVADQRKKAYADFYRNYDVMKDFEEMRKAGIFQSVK
UniProt Q49B96: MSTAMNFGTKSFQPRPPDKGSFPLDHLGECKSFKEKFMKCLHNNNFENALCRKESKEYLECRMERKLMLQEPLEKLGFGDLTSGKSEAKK
UniProt Q9GZQ3, whole entry, looked up: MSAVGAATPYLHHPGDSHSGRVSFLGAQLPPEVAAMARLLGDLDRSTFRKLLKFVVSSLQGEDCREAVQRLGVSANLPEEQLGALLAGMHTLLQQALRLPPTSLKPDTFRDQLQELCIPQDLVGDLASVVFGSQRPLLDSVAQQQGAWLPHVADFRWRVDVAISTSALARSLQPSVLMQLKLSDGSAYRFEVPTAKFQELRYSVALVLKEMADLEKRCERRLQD
UniProt Q08257: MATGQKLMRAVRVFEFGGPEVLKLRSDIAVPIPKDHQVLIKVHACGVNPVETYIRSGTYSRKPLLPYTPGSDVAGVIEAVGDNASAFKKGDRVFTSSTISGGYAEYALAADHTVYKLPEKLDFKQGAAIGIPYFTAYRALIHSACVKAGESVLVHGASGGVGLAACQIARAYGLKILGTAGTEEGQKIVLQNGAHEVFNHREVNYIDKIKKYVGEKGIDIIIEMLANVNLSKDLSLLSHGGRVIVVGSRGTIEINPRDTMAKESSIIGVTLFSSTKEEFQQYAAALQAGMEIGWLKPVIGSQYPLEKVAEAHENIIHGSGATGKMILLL
UniProt Q9NX08, whole entry, looked up: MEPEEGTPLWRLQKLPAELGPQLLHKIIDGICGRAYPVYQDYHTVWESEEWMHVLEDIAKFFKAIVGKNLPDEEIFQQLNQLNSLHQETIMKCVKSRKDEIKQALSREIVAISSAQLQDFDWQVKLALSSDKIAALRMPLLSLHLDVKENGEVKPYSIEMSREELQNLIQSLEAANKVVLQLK
UniProt P50416: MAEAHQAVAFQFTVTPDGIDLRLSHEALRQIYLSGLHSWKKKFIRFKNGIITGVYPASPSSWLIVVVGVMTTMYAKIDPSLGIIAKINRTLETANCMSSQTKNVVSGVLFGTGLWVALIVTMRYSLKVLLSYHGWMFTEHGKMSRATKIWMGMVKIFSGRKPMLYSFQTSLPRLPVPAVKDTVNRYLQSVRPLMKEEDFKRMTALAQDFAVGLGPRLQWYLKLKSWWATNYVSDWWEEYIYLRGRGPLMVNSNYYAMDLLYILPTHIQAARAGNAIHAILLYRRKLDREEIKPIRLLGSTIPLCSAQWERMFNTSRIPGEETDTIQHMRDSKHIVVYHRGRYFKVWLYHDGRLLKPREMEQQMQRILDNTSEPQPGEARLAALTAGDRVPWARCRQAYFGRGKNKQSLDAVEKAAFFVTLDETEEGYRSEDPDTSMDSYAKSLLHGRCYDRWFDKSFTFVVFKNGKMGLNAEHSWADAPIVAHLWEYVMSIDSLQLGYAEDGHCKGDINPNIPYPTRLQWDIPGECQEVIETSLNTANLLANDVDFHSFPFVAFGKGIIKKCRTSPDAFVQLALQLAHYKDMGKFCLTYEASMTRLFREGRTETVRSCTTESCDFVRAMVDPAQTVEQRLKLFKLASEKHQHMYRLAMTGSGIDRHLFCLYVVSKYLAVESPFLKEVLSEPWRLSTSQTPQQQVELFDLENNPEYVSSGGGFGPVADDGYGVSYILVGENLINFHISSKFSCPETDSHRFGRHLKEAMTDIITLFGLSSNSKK
UniProt A4D0V7: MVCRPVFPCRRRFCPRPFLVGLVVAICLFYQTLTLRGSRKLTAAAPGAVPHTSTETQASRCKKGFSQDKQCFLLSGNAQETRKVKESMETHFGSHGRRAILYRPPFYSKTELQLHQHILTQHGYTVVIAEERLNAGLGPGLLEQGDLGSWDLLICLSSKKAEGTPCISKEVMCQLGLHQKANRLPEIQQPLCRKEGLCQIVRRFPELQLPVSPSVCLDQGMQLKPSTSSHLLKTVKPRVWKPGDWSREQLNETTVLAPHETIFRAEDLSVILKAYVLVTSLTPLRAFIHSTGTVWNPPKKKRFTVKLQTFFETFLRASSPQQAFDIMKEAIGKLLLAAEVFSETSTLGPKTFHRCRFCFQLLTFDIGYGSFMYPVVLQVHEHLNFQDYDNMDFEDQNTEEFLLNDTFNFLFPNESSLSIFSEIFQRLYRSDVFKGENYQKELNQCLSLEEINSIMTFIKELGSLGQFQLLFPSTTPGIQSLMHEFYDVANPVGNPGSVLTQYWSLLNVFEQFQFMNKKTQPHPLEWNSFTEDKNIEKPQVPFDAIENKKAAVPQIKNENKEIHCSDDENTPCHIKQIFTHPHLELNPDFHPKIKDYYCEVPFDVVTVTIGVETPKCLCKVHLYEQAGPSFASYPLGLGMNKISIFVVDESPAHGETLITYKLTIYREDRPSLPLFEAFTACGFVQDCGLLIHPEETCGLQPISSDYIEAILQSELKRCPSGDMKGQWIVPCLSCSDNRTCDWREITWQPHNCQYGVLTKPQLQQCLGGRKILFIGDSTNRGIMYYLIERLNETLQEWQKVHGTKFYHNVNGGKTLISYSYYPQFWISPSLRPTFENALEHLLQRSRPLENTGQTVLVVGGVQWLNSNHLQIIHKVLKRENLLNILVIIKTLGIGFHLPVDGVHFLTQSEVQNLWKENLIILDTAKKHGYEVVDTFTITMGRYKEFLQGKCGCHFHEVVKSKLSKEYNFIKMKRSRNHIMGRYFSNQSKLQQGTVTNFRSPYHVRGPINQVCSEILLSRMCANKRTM
UniProt P57737: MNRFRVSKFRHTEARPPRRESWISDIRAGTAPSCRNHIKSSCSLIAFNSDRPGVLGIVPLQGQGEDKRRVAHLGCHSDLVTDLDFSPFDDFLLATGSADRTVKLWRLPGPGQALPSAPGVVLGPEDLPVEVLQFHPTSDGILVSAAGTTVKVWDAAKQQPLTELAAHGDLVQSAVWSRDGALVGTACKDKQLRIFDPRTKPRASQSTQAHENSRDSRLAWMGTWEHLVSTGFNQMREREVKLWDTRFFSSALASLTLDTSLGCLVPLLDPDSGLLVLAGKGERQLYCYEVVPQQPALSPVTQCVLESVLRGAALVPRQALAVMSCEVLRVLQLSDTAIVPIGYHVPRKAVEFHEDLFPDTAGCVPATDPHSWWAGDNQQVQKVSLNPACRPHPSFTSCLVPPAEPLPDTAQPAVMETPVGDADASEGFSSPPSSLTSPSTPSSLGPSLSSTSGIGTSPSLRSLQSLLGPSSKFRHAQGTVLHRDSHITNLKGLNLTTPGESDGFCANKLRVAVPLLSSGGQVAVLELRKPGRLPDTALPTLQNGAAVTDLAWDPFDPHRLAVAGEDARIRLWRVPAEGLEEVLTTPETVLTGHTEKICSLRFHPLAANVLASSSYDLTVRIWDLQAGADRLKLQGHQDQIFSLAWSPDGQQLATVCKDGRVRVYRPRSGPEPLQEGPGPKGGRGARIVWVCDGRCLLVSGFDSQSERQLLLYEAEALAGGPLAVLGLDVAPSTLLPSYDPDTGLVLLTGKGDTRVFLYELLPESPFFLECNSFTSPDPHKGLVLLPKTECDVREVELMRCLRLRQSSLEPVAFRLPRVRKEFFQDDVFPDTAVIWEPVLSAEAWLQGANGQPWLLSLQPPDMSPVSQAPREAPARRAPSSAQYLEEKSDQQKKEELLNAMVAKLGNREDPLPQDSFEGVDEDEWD
UniProt Q7Z5Q1: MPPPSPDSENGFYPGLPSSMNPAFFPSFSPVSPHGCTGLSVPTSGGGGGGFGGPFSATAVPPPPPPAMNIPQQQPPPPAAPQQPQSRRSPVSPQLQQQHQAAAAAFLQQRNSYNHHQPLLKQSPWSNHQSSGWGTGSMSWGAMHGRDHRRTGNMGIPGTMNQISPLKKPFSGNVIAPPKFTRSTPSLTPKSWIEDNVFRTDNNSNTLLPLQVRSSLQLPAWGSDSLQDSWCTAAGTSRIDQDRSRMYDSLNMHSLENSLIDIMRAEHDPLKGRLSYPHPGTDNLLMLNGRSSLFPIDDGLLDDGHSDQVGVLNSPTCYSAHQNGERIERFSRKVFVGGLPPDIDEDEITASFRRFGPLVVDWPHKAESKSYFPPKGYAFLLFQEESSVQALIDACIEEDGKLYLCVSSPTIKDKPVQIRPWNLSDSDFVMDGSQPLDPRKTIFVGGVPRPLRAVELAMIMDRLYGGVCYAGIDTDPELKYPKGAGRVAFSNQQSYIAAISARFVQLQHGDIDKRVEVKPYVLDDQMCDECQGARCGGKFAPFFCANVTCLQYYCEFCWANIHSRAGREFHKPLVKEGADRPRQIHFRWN
UniProt Q9NQ92: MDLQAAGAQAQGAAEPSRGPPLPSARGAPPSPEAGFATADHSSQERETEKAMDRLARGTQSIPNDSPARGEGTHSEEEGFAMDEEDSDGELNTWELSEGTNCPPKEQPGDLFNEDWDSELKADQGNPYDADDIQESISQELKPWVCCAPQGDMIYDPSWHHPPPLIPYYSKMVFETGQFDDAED
UniProt P68400, whole entry, looked up: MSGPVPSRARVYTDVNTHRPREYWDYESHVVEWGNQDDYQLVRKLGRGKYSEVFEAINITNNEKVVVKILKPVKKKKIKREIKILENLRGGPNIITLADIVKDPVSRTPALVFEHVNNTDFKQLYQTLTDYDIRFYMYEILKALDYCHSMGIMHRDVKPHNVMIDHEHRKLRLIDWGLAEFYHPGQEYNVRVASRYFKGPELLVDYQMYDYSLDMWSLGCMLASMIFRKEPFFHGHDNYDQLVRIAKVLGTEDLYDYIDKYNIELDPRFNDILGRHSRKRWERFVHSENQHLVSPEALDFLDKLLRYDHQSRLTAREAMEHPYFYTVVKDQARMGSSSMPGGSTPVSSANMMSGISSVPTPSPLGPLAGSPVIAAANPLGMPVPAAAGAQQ
UniProt Q8IUI8: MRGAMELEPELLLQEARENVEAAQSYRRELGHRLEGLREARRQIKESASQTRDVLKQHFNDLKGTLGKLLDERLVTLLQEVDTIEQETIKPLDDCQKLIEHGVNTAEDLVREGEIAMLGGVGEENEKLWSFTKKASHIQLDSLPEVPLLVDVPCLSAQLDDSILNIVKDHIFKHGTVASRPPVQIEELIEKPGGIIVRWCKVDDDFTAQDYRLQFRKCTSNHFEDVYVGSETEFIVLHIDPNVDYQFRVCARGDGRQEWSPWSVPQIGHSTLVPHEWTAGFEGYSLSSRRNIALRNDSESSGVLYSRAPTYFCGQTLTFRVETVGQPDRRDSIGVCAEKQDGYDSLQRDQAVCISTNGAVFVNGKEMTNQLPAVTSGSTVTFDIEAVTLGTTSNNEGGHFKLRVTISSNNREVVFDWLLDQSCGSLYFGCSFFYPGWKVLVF
UniProt Q6UXH1: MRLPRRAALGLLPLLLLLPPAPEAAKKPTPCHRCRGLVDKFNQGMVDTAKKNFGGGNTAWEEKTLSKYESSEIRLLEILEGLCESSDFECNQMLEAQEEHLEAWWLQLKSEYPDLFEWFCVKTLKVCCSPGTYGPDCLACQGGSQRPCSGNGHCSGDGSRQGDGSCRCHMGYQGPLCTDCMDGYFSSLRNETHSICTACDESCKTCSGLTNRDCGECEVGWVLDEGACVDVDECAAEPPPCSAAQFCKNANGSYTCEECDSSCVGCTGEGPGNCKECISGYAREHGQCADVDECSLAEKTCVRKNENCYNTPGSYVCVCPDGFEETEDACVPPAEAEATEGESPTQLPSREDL
UniProt Q9BRF8, whole entry, looked up: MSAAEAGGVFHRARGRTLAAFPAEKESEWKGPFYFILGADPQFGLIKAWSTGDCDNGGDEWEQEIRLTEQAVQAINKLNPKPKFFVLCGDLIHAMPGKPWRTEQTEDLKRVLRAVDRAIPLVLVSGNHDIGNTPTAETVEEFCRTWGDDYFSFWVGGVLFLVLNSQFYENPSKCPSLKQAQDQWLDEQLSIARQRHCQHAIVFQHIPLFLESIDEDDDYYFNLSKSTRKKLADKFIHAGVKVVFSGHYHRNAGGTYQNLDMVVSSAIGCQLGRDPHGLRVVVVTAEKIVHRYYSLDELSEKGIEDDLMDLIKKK
UniProt P61923: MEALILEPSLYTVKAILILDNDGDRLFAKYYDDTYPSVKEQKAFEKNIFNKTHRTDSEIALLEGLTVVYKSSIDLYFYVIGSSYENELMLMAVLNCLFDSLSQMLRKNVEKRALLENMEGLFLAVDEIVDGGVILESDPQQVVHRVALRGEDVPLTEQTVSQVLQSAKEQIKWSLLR

Key:
Test in all cases: log2 fold change, soluble protein after heating vs DMSO (PISA); higher = thermal stabilisation; K562 cells, 10 uM, 30 min; active = over 0.2 and 3.5 SD of the protein, either way, in both replicates (recomputed)
[1] = compound: CS(=O)(=O)c1ccc(-c2cnc(N)c(C(=O)Nc3ccccc3)n2)cc1
Summary of the method: (§1)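 Quantification of soluble protein used TMTpro 16plex LC-MS/MS, with channel sums equalised. Samples were the supernatant after 21,000xg for 90 min of pooled aliquots from K562 cells (2×10^6 cells/mL) treated with 10 μM compound for 30 min, heated for 3 min over 48°C-58°C, and extracted in PBS with 0.5% NP-40 at 4°C. Values, from duplicates, describe thermal stability against control samples on a log2 fold-change scale.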

crizotinib = compound: C[C@@H](Oc1cc(-c2cnn(C3CCNCC3)c2)cnc1N)c1c(Cl)ccc(F)c1Cl [crizotinib]
Summary of the method: as §1

[2] = compound: C[C@@H]1COCCN1C2=NC(=NC(=C2)C3(CC3)S(=O)(=O)C)C4=C5C=CNC5=CC=C4
Summary of the method: as §1

[3] = compound: C[C@H](C1=CC=C(C=C1)C(=O)NC2=C3C=CNC3=NC=C2)N
Summary of the method: as §1

duvelisib = compound: C[C@H](Nc1ncnc2nc[nH]c12)c1cc2cccc(Cl)c2c(=O)n1-c1ccccc1 [duvelisib]
Summary of the method: as §1

gandotinib = compound: Cc1cc(Nc2cc(CN3CCOCC3)c3nc(C)c(Cc4ccc(Cl)cc4F)n3n2)n[nH]1 [gandotinib]
Summary of the method: as §1

tozasertib = compound: Cc1cc(Nc2cc(N3CCN(C)CC3)nc(Sc3ccc(NC(=O)C4CC4)cc3)n2)n[nH]1 [tozasertib]
Summary of the method: as §1

[4] = compound: Cc1cc(SCc2sc(-c3ccc(C(F)(F)F)cc3)nc2C)ccc1OCC(=O)O
Summary of the method: as §1

doramapimod = compound: Cc1ccc(-n2nc(C(C)(C)C)cc2NC(=O)Nc2ccc(OCCN3CCOCC3)c3ccccc23)cc1 [doramapimod]
Summary of the method: as §1

ispinesib = compound: Cc1ccc(C(=O)N(CCCN)[C@@H](c2nc3cc(Cl)ccc3c(=O)n2Cc2ccccc2)C(C)C)cc1 [ispinesib]
Summary of the method: as §1

bafetinib = compound: Cc1ccc(NC(=O)c2ccc(CN3CC[C@H](N(C)C)C3)c(C(F)(F)F)c2)cc1Nc1nccc(-c2cncnc2)n1 [bafetinib]
Summary of the method: as §1

[5] = compound: Cc1cccc(CC(=O)N2CCc3c2ccc(-c2cn(C)c4ncnc(N)c24)c3F)n1
Summary of the method: as §1

nilotinib = compound: Cc1cn(-c2cc(NC(=O)c3ccc(C)c(Nc4nccc(-c5cccnc5)n4)c3)cc(C(F)(F)F)c2)cn1 [nilotinib]
Summary of the method: as §1

[6] = compound: Cc1nc(Nc2n[nH]c3c2CN(C(=O)N[C@H](CN(C)C)c2ccccc2)C3(C)C)c2sccc2n1
Summary of the method: as §1

dasatinib = compound: Cc1nc(Nc2ncc(C(=O)Nc3c(C)cccc3Cl)s2)cc(N2CCN(CCO)CC2)n1 [dasatinib]
Summary of the method: as §1

[7] = compound: Cc1ncc(-c2ccnc(Nc3ccc(S(C)(=O)=O)cc3)n2)n1C(C)C
Summary of the method: as §1

[8] = compound: Cn1cc(-c2ccc3c(c2)CCN3C(=O)Cc2cccc(C(F)(F)F)c2)c2c(N)ncnc21
Summary of the method: as §1

[9] = compound: Cn1cc(-c2ccc3nnc(C(F)(F)c4ccc5ncccc5c4)n3n2)cn1
Summary of the method: as §1

tipifarnib = compound: Cn1cncc1[C@@](N)(c1ccc(Cl)cc1)c1ccc2c(c1)c(-c1cccc(Cl)c1)cc(=O)n2C [tipifarnib]
Summary of the method: as §1

mubritinib = compound: FC(F)(F)c1ccc(/C=C/c2nc(COc3ccc(CCCCn4ccnn4)cc3)co2)cc1 [mubritinib]
Summary of the method: as §1

Row | Target | log2 fold change [1] | log2 fold change (crizotinib) | log2 fold change [2] | log2 fold change [3] | log2 fold change (duvelisib) | log2 fold change (gandotinib) | log2 fold change (tozasertib) | log2 fold change [4] | log2 fold change (doramapimod) | log2 fold change (ispinesib) | log2 fold change (bafetinib) | log2 fold change [5] | log2 fold change (nilotinib) | log2 fold change [6] | log2 fold change (dasatinib) | log2 fold change [7] | log2 fold change [8] | log2 fold change [9] | log2 fold change (tipifarnib) | log2 fold change (mubritinib)
1 | COPS7A (UniProt Q9UBW8) | inactive: 0.011 | inactive: 0.011 | inactive: -0.002 | inactive: -0.027 | inactive: 0.067 | inactive: 0.003 | inactive: -0.054 | inactive: -0.01 | inactive: -0.003 | inactive: 0.04 | inactive: -0.013 | inactive: -0.015 | inactive: 0.001 | inactive: -0.001 | inactive: -0.047 | inactive: -0.01 | inactive: 0.044 | inactive: 0.037 | inactive: 0.048 | inactive: 0.046
2 | COX6C (UniProt P09669) | inactive: -0.039 | inactive: 0.003 | inactive: 0.08 | inactive: -0.072 | inactive: 0.043 | inactive: 0.014 | inactive: -0.007 | inactive: -0.014 | inactive: -0.035 | inactive: 0.04 | inactive: 0.02 | inactive: -0.02 | inactive: 0.006 | inactive: 0.045 | inactive: 0.07 | inactive: 0.02 | inactive: 0.034 | inactive: 0.07 | inactive: 0.008 | inactive: 0.017
3 | COX19 (UniProt Q49B96) | inactive: -0.009 | inactive: 0.164 | inactive: 0.053 | inactive: 0.036 | inactive: 0.176 | inactive: -0.09 | inactive: -0.016 | inactive: -0.086 | inactive: 0.038 | inactive: 0.003 | inactive: -0.049 | inactive: -0.001 | inactive: 0.009 | inactive: -0.01 | inactive: -0.001 | inactive: 0 | inactive: 0.024 | inactive: 0.039 | inactive: -0.01 | inactive: 0.044
4 | COMMD5 (UniProt Q9GZQ3) | inactive: 0.03 | inactive: -0.021 | inactive: 0.143 | inactive: -0.013 | inactive: 0.049 | inactive: -0.081 | inactive: 0.022 | inactive: 0.02 | inactive: 0.039 | inactive: 0.021 | inactive: -0.002 | inactive: 0.022 | inactive: -0.022 | inactive: -0.005 | inactive: -0.013 | inactive: -0.011 | inactive: 0.032 | inactive: 0.054 | inactive: -0.038 | inactive: 0
5 | CRYZ (UniProt Q08257) | inactive: 0.047 | inactive: 0.007 | inactive: 0.033 | inactive: -0.053 | inactive: 0.051 | inactive: -0.028 | inactive: 0.002 | inactive: -0.001 | inactive: -0.063 | inactive: 0.042 | inactive: -0.044 | inactive: -0.052 | inactive: 0.002 | inactive: 0.004 | inactive: 0.033 | inactive: -0.012 | inactive: 0.037 | inactive: -0.01 | inactive: -0.037 | inactive: -0.018
6 | COMMD8 (UniProt Q9NX08) | inactive: 0.041 | inactive: 0.01 | inactive: 0.127 | inactive: 0.03 | inactive: 0.035 | inactive: -0.002 | inactive: 0.071 | inactive: 0.172 | inactive: -0.006 | inactive: 0.037 | inactive: 0.054 | inactive: 0.041 | inactive: -0.014 | inactive: -0.094 | inactive: -0.005 | inactive: 0.081 | inactive: 0.028 | inactive: -0.027 | inactive: -0.04 | inactive: 0.006
7 | CPT1A (UniProt P50416) | inactive: 0.043 | active: 0.546 | inactive: 0.02 | inactive: 0.047 | – | inactive: 0.211 | – | inactive: 0.079 | inactive: 0.012 | inactive: 0.322 | inactive: 0.171 | inactive: 0.006 | inactive: 0.058 | inactive: 0.021 | inactive: -0.042 | inactive: -0.107 | inactive: -0.024 | inactive: -0.036 | inactive: 0.187 | inactive: -0.05
8 | CPED1 (UniProt A4D0V7) | inactive: 0.023 | inactive: 0.034 | inactive: -0.137 | inactive: 0.113 | inactive: -0.003 | inactive: 0.072 | inactive: 0.013 | inactive: -0.004 | inactive: 0.081 | inactive: -0.083 | inactive: 0.045 | inactive: -0.036 | inactive: -0.052 | inactive: -0.058 | inactive: -0.006 | inactive: 0.032 | inactive: -0.118 | inactive: 0.04 | inactive: 0.096 | inactive: 0.041
9 | COPS6 (UniProt Q7L5N1) | inactive: 0.006 | inactive: 0.004 | inactive: 0.037 | inactive: -0.154 | inactive: -0.021 | inactive: 0.031 | inactive: 0.056 | inactive: 0.021 | inactive: -0.031 | inactive: 0.137 | inactive: -0.044 | inactive: 0.094 | inactive: 0.017 | inactive: -0.033 | inactive: -0.009 | inactive: 0.002 | inactive: -0.028 | inactive: -0.03 | inactive: 0.016 | inactive: 0.001
10 | CORO7 isoform 3 (UniProt P57737) | inactive: -0.046 | inactive: -0.095 | inactive: -0.015 | inactive: -0.072 | inactive: 0.003 | inactive: -0.008 | inactive: 0.013 | inactive: -0.004 | inactive: -0.023 | inactive: -0.106 | inactive: -0.044 | inactive: -0.086 | inactive: 0.029 | inactive: -0.02 | inactive: -0.028 | inactive: 0.009 | inactive: -0.028 | inactive: 0.009 | inactive: 0.051 | inactive: 0.028
11 | CPEB2 isoform 9 (UniProt Q7Z5Q1) | inactive: -0.043 | inactive: 0.209 | inactive: -0.272 | inactive: 0.142 | inactive: 0.04 | – | inactive: -0.048 | inactive: 0.08 | inactive: 0.225 | inactive: -0.024 | inactive: 0 | – | – | – | inactive: -0.098 | – | inactive: -0.119 | inactive: 0.087 | inactive: -0.188 | –
12 | COPRS (UniProt Q9NQ92) | inactive: -0.066 | inactive: 0.03 | inactive: 0.017 | inactive: -0.026 | inactive: 0.102 | inactive: -0.045 | inactive: -0.011 | inactive: 0.043 | inactive: 0.072 | inactive: 0.004 | inactive: -0.008 | inactive: -0.051 | inactive: -0.013 | inactive: 0.009 | inactive: 0.089 | inactive: -0.005 | inactive: 0.078 | inactive: -0.041 | inactive: 0 | inactive: 0.048
13 | CSNK2A1 (UniProt P68400) | inactive: 0.055 | inactive: -0.04 | inactive: 0.016 | inactive: -0.17 | – | inactive: 0.043 | – | inactive: 0.005 | inactive: -0.022 | inactive: 0.029 | inactive: -0.02 | inactive: -0.073 | inactive: 0.032 | inactive: 0.019 | inactive: -0.03 | inactive: -0.055 | inactive: -0.019 | inactive: 0.035 | inactive: 0.03 | inactive: -0.019
14 | CRLF3 (UniProt Q8IUI8) | inactive: 0.053 | inactive: -0.015 | inactive: 0.048 | inactive: 0.017 | – | inactive: 0.016 | – | inactive: 0.019 | inactive: 0.138 | inactive: -0.059 | inactive: -0.032 | inactive: -0.045 | inactive: -0.043 | inactive: -0.117 | inactive: -0.145 | inactive: 0.011 | inactive: 0.025 | inactive: 0.024 | inactive: -0.018 | inactive: 0.032
15 | CRELD2 isoform 5 (UniProt Q6UXH1) | inactive: 0 | inactive: 0.063 | inactive: -0.084 | inactive: -0.007 | inactive: 0.03 | inactive: 0.004 | inactive: -0.015 | inactive: -0.043 | inactive: 0.063 | inactive: 0.008 | inactive: -0.095 | inactive: -0.055 | inactive: 0.019 | inactive: -0.089 | inactive: -0.01 | inactive: -0.027 | inactive: 0.027 | inactive: 0.026 | inactive: 0.109 | inactive: 0.004
16 | CPPED1 (UniProt Q9BRF8) | inactive: 0.027 | inactive: -0.019 | inactive: 0.021 | inactive: 0.011 | inactive: 0 | inactive: -0.031 | inactive: -0.036 | inactive: -0.064 | inactive: -0.005 | inactive: -0.005 | inactive: 0.02 | inactive: -0.012 | inactive: -0.019 | inactive: -0.024 | inactive: 0.069 | inactive: -0.009 | inactive: 0.006 | inactive: 0.033 | inactive: -0.025 | inactive: 0.016
17 | COPZ1 isoform 4 (UniProt P61923) | inactive: -0.093 | inactive: 0.074 | inactive: 0.164 | inactive: -0.122 | inactive: 0.167 | inactive: 0.057 | inactive: 0.085 | inactive: 0.016 | inactive: 0.064 | inactive: 0.223 | inactive: 0.014 | inactive: -0.095 | inactive: -0.001 | inactive: -0.044 | inactive: 0.079 | inactive: -0.031 | inactive: 0.057 | inactive: 0.163 | inactive: -0.057 | inactive: 0.023
